# Measured values taken from publication PMC7819943, “Rice protein-binding microarrays: a tool to detect cis-acting elements near promoter regions in rice”.
# Amino acid sequences for entries named in this document (tags omitted).
# UniProt Q0JBA9, entry or part of it: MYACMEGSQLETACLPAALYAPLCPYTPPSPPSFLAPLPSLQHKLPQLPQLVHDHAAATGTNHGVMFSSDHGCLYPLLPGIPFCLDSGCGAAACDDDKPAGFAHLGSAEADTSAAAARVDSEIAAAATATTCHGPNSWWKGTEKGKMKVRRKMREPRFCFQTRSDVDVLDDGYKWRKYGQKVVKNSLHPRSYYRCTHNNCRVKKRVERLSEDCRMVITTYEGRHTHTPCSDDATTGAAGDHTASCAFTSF
# The list shows a part of the results.
# Molecular target: OsWRKY34 (Oryza sativa, UniProt Q0JBA9 1-250)
# Test: protein-binding microarray (RPBM); PBS, 2% BSA, 51.3 ng/ul salmon testes DNA, 50 uM zinc acetate, 200 nM TF, 25 C, 1 h; high values mean tight binding
# Conditions: protein: recombinant; tags: N-terminal polyhistidine and DsRed monomer fusion (pET32a); label: CyDye5-dUTP incorporated in the synthesized complementary strand; 3' TTTTT single-stranded linker to array surface; dsDNA, one strand shown
# Summary of the method: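 The binding signal is fluorescence intensity per array feature (arbitrary units). Readings came from an Axon 4000B scanner after a washed, 2% BSA-blocked, double-stranded custom Agilent array had been incubated for 1 h at 25 °C with 200 nM protein and 50 µM zinc acetate. The protein was a Ni–NTA-purified transcription factor fused N-terminally to polyhistidine and DsRed, expressed in E. coli BL21-CodonPlus.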
row,Sequence,binding signal
1,ATAAGTATATAACCACCAGTACACACTCTTCCAACACACACGGAGTCACCTAGTGCAG,8050 fluorescence intensity (a.u.)
2,ATAAGACGAACGGTCAAATATGTGCTAAAAAGTCAACGGTCGGAGTCACCTAGTGCAG,16400 fluorescence intensity (a.u.)
3,AGGGAGCCTATTTTAATGTATGACACCGTTGACTTTTTTGCGGAGTCACCTAGTGCAG,19200 fluorescence intensity (a.u.)
4,GAAATATGATTGTTATGCATGACAGCGGCTCAGAGTTGACCGGAGTCACCTAGTGCAG,8600 fluorescence intensity (a.u.)
5,CGTTACCGCTTTCATCACTGCCTCCGTCACGCGCTGCCTACGGAGTCACCTAGTGCAG,10600 fluorescence intensity (a.u.)
6,ATTGTGTTATATGACTTGGCACATCTTTCTTATTTTGAATCGGAGTCACCTAGTGCAG,9170 fluorescence intensity (a.u.)
7,AATGCCCGCAAAGCTTATGGTCCAGTCGAAAGCCCACAGTCGGAGTCACCTAGTGCAG,8400 fluorescence intensity (a.u.)
8,CCTCCGTTTCTAAATATTTAACGCCATTGACTTTTTAGCACGGAGTCACCTAGTGCAG,9160 fluorescence intensity (a.u.)
9,CTAATCCTATTCTAGTAATTATTAATGCAGTAATTTTGTTCGGAGTCACCTAGTGCAG,9180 fluorescence intensity (a.u.)
10,ACGAGTCCTACTATCCATACACACCCGTCCTATGCCGGTTCGGAGTCACCTAGTGCAG,9760 fluorescence intensity (a.u.)
11,TTTCTTCAATCGGTATTCCTTTGCATGTTTTAACAGCTGACGGAGTCACCTAGTGCAG,8790 fluorescence intensity (a.u.)
12,CTCGAGATCACCGGGAGAGAGGGGAAAGGGCGGGGACGTCCGGAGTCACCTAGTGCAG,8300 fluorescence intensity (a.u.)
13,ATATGTGCTGCTTGTCAATGCTTCCTCGGTTCTTTTTTTCCGGAGTCACCTAGTGCAG,13000 fluorescence intensity (a.u.)
14,GCGCGTCATCCTCCGCGAATTTTGTTATTCGCTGCCGCTGCGGAGTCACCTAGTGCAG,8250 fluorescence intensity (a.u.)
15,TTTTTCTCTTCTCTCGGCCGCTGCACTTTTTTCTTTCTTTCGGAGTCACCTAGTGCAG,12400 fluorescence intensity (a.u.)
16,ATCCATCTCCTCCCATGTGTGCTTTTGGCAGTGAAGCGATCGGAGTCACCTAGTGCAG,10100 fluorescence intensity (a.u.)
17,GTTCAATTTTGTTTGCTTTGTATCCCTCTGTTGGTAGTTACGGAGTCACCTAGTGCAG,9190 fluorescence intensity (a.u.)
18,CATCGCATATTTGACACAAACTGCACCAATGCTTTCTTCACGGAGTCACCTAGTGCAG,8820 fluorescence intensity (a.u.)
19,ACTTTTCGCATTATAGGCTAGATATTATCTATACATGTCACGGAGTCACCTAGTGCAG,12200 fluorescence intensity (a.u.)
20,ATCCTTCCACGTCATCGATCCGCGCCGCATGCTTTCCACCCGGAGTCACCTAGTGCAG,15400 fluorescence intensity (a.u.)
21,TCCGGTTGTGTTTGTACCTGACAAGTTGATTCATCTCGCACGGAGTCACCTAGTGCAG,9230 fluorescence intensity (a.u.)

row,Sequence,binding signal
1,CCCCACCTGTCACATGCCTCACGCAGCAGAGCTCAACACACGGAGTCACCTAGTGCAG,9150 fluorescence intensity (a.u.)
2,ATACCGCCTATTTGCCACTCGTTTTTCTTCTCTTGGGCCGCGGAGTCACCTAGTGCAG,18700 fluorescence intensity (a.u.)
3,CCCTATCCAACGGCGTGATCTGATTCTGGTGGGATCTTTTCGGAGTCACCTAGTGCAG,8720 fluorescence intensity (a.u.)
4,CACATTCCATATACTTTAATCCCCTGATTTTTCTCCTCCTCGGAGTCACCTAGTGCAG,8540 fluorescence intensity (a.u.)
5,GATACGAATAGTTTAAATTTTTGGCTAATTATTTTTCCAGCGGAGTCACCTAGTGCAG,8200 fluorescence intensity (a.u.)
6,ATAGGCTATGTTCTTTGGACAACTTTTCCAACTTTACTCTCGGAGTCACCTAGTGCAG,8770 fluorescence intensity (a.u.)
7,TCCAGGTAGTCCACCGTGTCGGTCCACTCCGCCGCCGGCGCGGAGTCACCTAGTGCAG,9470 fluorescence intensity (a.u.)
8,CGGTGGTTTGACTGCTTTGACTTTTTTTTTTTTGGACCTTCGGAGTCACCTAGTGCAG,14100 fluorescence intensity (a.u.)
9,CGTTGCCGCCATCACAGTCACTATCATGGCCAGATCCATCCGGAGTCACCTAGTGCAG,8260 fluorescence intensity (a.u.)
10,TAGGTGAGGTAGCTACTTACATGTGCGTTTTTTATTTCTTCGGAGTCACCTAGTGCAG,9180 fluorescence intensity (a.u.)
11,CATATATGGCTGTGTTCTTTTCCCCTCTTTCCTAACTCACCGGAGTCACCTAGTGCAG,8040 fluorescence intensity (a.u.)
12,ACCTGGTCGTTGACTTGAGAGCCAAGCTTTGTTCACTAGCCGGAGTCACCTAGTGCAG,9440 fluorescence intensity (a.u.)
13,CTTCTACCTAATTTATATAATCTGCTAGTACTATACTTACCGGAGTCACCTAGTGCAG,8030 fluorescence intensity (a.u.)
14,CCTCATGGCACCATCTGTCTCACCATCCCGCGGGCAGCTTCGGAGTCACCTAGTGCAG,8800 fluorescence intensity (a.u.)
15,TACCGTTGCCTAGCGCTGTCACAAATCCAACACAAATTCCCGGAGTCACCTAGTGCAG,8850 fluorescence intensity (a.u.)
16,GACAAACATCCTGTACTACTCCCTCCGTTCTATTTTAAATCGGAGTCACCTAGTGCAG,8220 fluorescence intensity (a.u.)
17,TCACGTCGACCTCATCGGCAATTCGGCACCGCACCCTCCCCGGAGTCACCTAGTGCAG,8130 fluorescence intensity (a.u.)
18,TGGGTTGAACTTTGGGTTAATTGAAGTGTATAGCTTAATTCGGAGTCACCTAGTGCAG,9320 fluorescence intensity (a.u.)
19,CCGTCCATCCATCTCCGATGCCGACCCTGCCACCGTCATCCGGAGTCACCTAGTGCAG,12000 fluorescence intensity (a.u.)
20,GTGGTTAGCTATTGGTTGGATGATCTATGTGGGAAAGGCTCGGAGTCACCTAGTGCAG,9460 fluorescence intensity (a.u.)
21,CACTAAAGTTTCATTGGGTTTTCAGTTTTCACTTCATTATCGGAGTCACCTAGTGCAG,10700 fluorescence intensity (a.u.)

# Reformatted: results already given
row | Sequence | binding signal
11 | CATATATGGCTGTGTTCTTTTCCCCTCTTTCCTAACTCACCGGAGTCACCTAGTGCAG | 8040 fluorescence intensity (a.u.)
12 | ACCTGGTCGTTGACTTGAGAGCCAAGCTTTGTTCACTAGCCGGAGTCACCTAGTGCAG | 9440 fluorescence intensity (a.u.)
13 | CTTCTACCTAATTTATATAATCTGCTAGTACTATACTTACCGGAGTCACCTAGTGCAG | 8030 fluorescence intensity (a.u.)
